Results: article PMC7950264
Results are given in words; binding and its absence hold for the method and conditions named. Binding seen in cells or lysates may run through a third protein. These calls come from enrichment with a bait or labelling near it, and not all partners need be listed.

By UniProt entry, the sequences of proteins in these tests, tags left out. Where a name states a change or a piece, a line headed by the entry shows the natural chain unless it says otherwise. Chains listed by the source or under a name are the forms on record and can include a tag or linker.
pyruvate kinase M1 (P14618-2, form named): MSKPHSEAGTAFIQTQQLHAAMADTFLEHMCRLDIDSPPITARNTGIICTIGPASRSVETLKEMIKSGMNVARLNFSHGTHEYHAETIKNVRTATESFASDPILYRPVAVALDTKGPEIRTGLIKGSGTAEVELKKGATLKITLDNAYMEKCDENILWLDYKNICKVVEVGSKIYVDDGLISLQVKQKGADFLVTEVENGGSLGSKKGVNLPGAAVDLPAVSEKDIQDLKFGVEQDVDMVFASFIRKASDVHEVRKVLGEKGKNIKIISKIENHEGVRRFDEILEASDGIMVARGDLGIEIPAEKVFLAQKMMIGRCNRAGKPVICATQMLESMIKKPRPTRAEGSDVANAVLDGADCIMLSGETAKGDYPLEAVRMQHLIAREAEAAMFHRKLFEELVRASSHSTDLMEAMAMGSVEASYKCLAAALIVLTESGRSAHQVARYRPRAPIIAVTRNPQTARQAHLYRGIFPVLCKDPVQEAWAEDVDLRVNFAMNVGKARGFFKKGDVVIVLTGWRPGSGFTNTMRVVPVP

T1: TRIM29 (human (endogenous in DLD-1 and SW480)) (UniProt Q14134)
T1 sequence: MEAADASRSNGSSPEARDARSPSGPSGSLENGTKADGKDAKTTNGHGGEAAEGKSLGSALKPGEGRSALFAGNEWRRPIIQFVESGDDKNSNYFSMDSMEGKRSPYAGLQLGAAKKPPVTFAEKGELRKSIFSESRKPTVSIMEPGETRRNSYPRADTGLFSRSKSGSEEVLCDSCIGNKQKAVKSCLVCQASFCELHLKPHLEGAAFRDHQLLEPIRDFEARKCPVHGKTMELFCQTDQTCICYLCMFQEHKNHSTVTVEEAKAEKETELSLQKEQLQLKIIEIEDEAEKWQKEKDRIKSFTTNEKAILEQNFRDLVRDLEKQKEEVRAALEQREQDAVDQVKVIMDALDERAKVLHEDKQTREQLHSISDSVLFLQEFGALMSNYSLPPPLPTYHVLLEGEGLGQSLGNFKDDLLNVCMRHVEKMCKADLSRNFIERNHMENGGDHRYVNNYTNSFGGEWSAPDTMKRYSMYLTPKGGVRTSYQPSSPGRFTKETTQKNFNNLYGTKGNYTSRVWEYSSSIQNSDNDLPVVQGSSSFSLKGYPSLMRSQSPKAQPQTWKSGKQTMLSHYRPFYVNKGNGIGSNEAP

B1: Serpin B3 (protein, UniProt P29508 1-390)
chain: MNSLSEANTKFMFDLFQQFRKSKENNIFYSPISITSALGMVLLGAKDNTAQQIKKVLHFDQVTENTTGKAATYHVDRSGNVHHQFQKLLTEFNKSTDAYELKIANKLFGEKTYLFLQEYLDAIKKFYQTSVESVDFANAPEESRKKINSWVESQTNEKIKNLIPEGNIGSNTTLVLVNAIYFKGQWEKKFNKEDTKEEKFWPNKNTYKSIQMMRQYTSFHFASLEDVQAKVLEIPYKGKDLSMIVLLPNEIDGLQKLEEKLTAEKLMEWTSLQNMRETRVDLHLPRFKVEESYDLKDTLRTMGMVDIFNGDADLSGMTGSRGLVLSGVLHKAFVEVTEEGAEAAAATAVVGFGSSPTSTNEEFHCNHPFLFFIRQNKTNSILFYGRFSSP
B2: 5'-nucleotidase isoform 2 preproprotein (enzyme, UniProt P21589-2 27-499)
chain: WELTILHTNDVHSRLEQTSEDSSKCVNASRCMGGVARLFTKVQQIRRAEPNVLLLDAGDQYQGTIWFTVYKGAEVAHFMNALRYDAMALGNHEFDNGVEGLIEPLLKEAKFPILSANIKAKGPLASQISGLYLPYKVLPVGDEVVGIVGYTSKETPFLSNPGTNLVFEDEITALQPEVDKLKTLNVNKIIALGHSGFEMDKLIAQKVRGVDVVVGGHSNTFLYTGNPPSKEVPAGKYPFIVTSDDGRKVPVVQAYAFGKYLGYLKIEFDERGNVISSHGNPILLNSSIPEDPSIKADINKWRIKLDNYSTQELGKTIVYLDGSSQSCRFRECNMGNLICDAMINNNLRHTDEMFWNHVSMCILNGGGIRSPIDERNNGIHVVYDLSRKPGDRVVKLDVLCTKCRVPSYDPLKMDEVYKVILPNFLANGGDGFQMIKDELLRHDSGDQDINVVSTYISKMKVIYPAVEGRIKFS

Target: T1, TRIM29 (human (endogenous in DLD-1 and SW480))
Assay: affinity purification with mass spectrometry; 2 mg DLD-1 lysate with 1 ug anti-TRIM29 antibody or rabbit IgG and protein A/G beads, 4 C overnight; SDS-PAGE, silver staining, differential bands between 35 and 70 kDa analysed by LC-MS/MS

binding, binds:
annexin A2 isoform 2 (from UniProt P07355-1 1-339)
pyruvate kinase M1 (from UniProt P14618-2 1-531) (enzyme)
B1
B2
